Results published in the supplement of paper PMC12823440, “Inhibitors supercharge kinase turnover through native proteolytic circuits” (Nature, 2025).
Where a name gives a salt, the structure may show the parent alone. This is one part of the list. The calls rarely recur for the same compound in another form.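 Kinases, fused to nanoluciferase, were expressed in K562 cells; luminescence was measured every 4 h from 2 to 18 h as percent of control (DMSO = 100%, positive control = 0%). A time point is decreased if signal falls significantly (2 sigma). Hits were called by the authors by a rule that is not shown; the count of time points alone does not decide it.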

Chains of the proteins cited; added tags and fusions are not shown. Lines headed by an entry give the natural chain unless they say otherwise; changes in a name come on top.
UniProt Q9UBF8: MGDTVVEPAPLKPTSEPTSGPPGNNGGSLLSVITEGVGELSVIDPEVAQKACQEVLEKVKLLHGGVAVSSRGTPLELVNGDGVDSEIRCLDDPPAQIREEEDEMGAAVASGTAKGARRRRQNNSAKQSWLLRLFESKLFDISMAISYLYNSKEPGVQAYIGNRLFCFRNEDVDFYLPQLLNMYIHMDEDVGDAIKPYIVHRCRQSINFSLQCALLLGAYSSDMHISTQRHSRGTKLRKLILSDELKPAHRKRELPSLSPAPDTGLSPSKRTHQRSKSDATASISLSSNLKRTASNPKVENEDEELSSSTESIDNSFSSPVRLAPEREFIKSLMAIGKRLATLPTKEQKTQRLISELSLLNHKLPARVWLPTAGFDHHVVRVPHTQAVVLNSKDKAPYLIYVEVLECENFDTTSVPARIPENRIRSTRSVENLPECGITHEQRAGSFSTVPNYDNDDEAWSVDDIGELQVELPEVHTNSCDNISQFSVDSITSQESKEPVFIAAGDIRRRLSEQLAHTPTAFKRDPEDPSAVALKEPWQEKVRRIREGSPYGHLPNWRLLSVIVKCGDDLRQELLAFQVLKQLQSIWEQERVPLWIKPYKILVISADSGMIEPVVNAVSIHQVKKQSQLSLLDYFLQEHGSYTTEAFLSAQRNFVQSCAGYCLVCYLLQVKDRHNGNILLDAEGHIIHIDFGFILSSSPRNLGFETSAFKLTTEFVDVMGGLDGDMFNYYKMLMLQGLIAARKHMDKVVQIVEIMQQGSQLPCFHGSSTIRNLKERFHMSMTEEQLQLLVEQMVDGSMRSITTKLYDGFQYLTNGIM
UniProt P53350, whole entry: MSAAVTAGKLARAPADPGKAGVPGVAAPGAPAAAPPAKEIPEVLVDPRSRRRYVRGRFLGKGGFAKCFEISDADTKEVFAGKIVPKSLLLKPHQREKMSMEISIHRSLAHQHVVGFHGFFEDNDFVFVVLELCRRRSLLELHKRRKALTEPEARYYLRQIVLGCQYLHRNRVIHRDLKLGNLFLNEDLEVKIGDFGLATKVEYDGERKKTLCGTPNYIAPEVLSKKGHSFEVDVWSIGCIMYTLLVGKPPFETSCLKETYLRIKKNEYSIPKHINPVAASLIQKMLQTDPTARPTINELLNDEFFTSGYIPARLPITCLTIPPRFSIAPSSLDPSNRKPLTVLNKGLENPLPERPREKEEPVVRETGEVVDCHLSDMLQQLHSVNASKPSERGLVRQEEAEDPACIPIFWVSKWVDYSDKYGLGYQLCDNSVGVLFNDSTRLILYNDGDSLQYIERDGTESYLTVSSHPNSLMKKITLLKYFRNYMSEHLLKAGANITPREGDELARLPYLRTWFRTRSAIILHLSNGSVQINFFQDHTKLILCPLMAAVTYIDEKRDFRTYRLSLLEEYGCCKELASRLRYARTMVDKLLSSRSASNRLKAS

molecular target: PIK4CB (UniProt Q9UBF8); assay: number of time points (of 5) at which kinase-Nluc abundance scored as decreased, DMSO-normalised (count); higher = more persistent destabilization; details: K562; 2-18 h

Row | Structure (SMILES) | number of time points
1 | Nc1ncnc2c1ncn2[C@@H]1O[C@@H]2COP(O)(=S)O[C@H]2[C@H]1O (stereo not given in full) [Sp-cAMPS (sodium salt)] (10 µM) | 0
2 | CN(C)C(=O)c1ccc(Cn2c(C(=O)O)cc3c(Br)cc(Sc4ccc(Cl)c(Cl)c4)cc32)cc1 [Rheb inhibitor NR1] (10 µM) | 0
3 | C/C=C(/C)C(=O)O[C@H]1[C@@H]2[C@H](C)C(=O)O[C@@H]2C[C@@H](C)[C@@H]2C=CC(=O)[C@]21C [Brevilin A] (2.5 µM) | 0

molecular target: PLK1 (UniProt P53350); assay: as above; details: K562; 2-18 h

Row | Structure (SMILES) | number of time points
4 | C[C@H]1CC[C@]2(NC1)O[C@H]1C[C@H]3[C@@H]4CC[C@H]5C[C@@H](O[C@@H]6O[C@H](CO)[C@H](O[C@@H]7O[C@H](CO)[C@@H](O)[C@H](O[C@@H]8OC[C@@H](O)[C@H](O)[C@H]8O)[C@H]7O[C@@H]7O[C@H](CO)[C@@H](O)[C@H](O)[C@H]7O)[C@H](O)[C@H]6O)CC[C@]5(C)[C@H]4CC[C@]3(C)[C@H]1[C@@H]2C [Tomatine] (2.5 µM) | 0
5 | CCCCNc1nc(N)c2[nH]c(=O)n(Cc3ccc(C)nc3)c2n1 (10 µM) | 0
6 | C[C@H](CCC(=O)O)C[C@H](C)C[C@H](C)C(=O)/C=C(\O)[C@H](C)C[C@H](C)C/C=C/[C@@H](C)[C@@H](O)[C@@H](C)[C@@H](O)C[C@@H]1CC[C@@](C)([C@H]2CC[C@@](C)([C@@H](C)O)O2)O1 [Ionomycin (calcium)] (2.5 µM) | 0
7 | CCOC(=O)c1c(/C(C#N)=C\N)c2ccc(Cl)c(Cl)c2n1C (10 µM) | 0
8 | CC(=O)OC(C)(C)/C=C/C(=O)[C@](C)(O)[C@H]1[C@H](O)C[C@@]2(C)[C@@H]3CC=C4[C@@H](C=C(O)C(=O)C4(C)C)[C@]3(C)C(=O)C[C@]12C [Cucurbitacin E] (2.5 µM) | 0
9 | O=C1C=CC[C@@H]2[C@H]3CCCN4CCC[C@@H](CN12)[C@@H]34 [Sophocarpine (monohydrate)] (2.5 µM) | 0
10 | C=CC(=O)Nc1ccc2[nH]c(=O)n(C3CCN(Cc4ccc(-c5nc6cc[nH]c(=O)c6cc5-c5ccccc5)cc4)CC3)c2c1 [Borussertib] (10 µM) | 0
11 | O=C1C=CC[C@@H]2[C@H]3CCCN4CCC[C@@H](CN12)[C@@H]34 [Sophocarpine] (10 µM) | 0
12 | C=CC(=O)N[C@H]1C=C(C)c2c(-c3cnc4ccccc4c3)c3c(N)ncnc3n2C1 (10 µM) | 0
13 | Cn1cc(C2=C(c3cn(C4CCN(Cc5ccccn5)CC4)c4ccccc34)C(=O)NC2=O)c2ccccc21 [Enzastaurin] (10 µM) | 0
14 | CCN1CCN(C(=O)Cc2ccc(Nc3ncc(F)c(Nc4ccc(C(=O)Nc5ccccc5Cl)cc4)n3)cc2)CC1 (2.5 µM) | 0
15 | C[C@H]1CC[C@]2(NC1)O[C@H]1C[C@H]3[C@@H]4CC[C@H]5C[C@@H](O)CC[C@]5(C)[C@H]4CC[C@]3(C)[C@H]1[C@@H]2C [Tomatidine (hydrochloride)] (10 µM) | 0
16 | O=[N+]([O-])/C=C/c1ccc2c(c1)OCO2 (2.5 µM) | 0
17 | NCCc1cn(S(=O)(=O)c2c(Cl)nc3sccn23)c2ccccc12 (10 µM) | 0
18 | COc1ccc(N(C(=O)Oc2c(C)cccc2C)c2ccnc(Nc3ccc(N4CCN(C)CC4)cc3)n2)c(OC)c1 (2.5 µM) | 0
19 | Cc1ccccc1-n1c(Cn2cnc3c(N)ncnc32)nc2cccc(C)c2c1=O (10 µM) | 0
20 | Cc1[nH]ncc1-c1cc2nc([C@H]3CC4CCN3CC4)[nH]c(=O)c2s1 [(R)-Simurosertib] (10 µM) | 0
21 | CC1C(=O)OC2C(O)C34C5OC(=O)C3(OC3OC(=O)C(O)C34C(C(C)(C)C)C5O)C12O (stereo not given) [Ginkgolide C] (10 µM) | 0
22 | O=C(/C=C/c1ccccc1)OC[C@H]1O[C@@H](O[C@@H]2OC=C[C@H]3[C@H](O)[C@@H]4O[C@]4(CO)[C@@H]23)[C@H](O)[C@@H](O)[C@@H]1O [Picroside I] (10 µM) | 0
23 | CC1=C[C@]23C(=O)[C@@H](C=C(CO)[C@@H](O)[C@]2(O)[C@H]1O)[C@H]1[C@@H](C[C@H]3C)C1(C)C [Ingenol] (10 µM) | 0
24 | O=Cc1cn(Cc2ccc(Cl)cc2)c2ccccc12 [Oncrasin-1] (10 µM) | 0
25 | C[C@@H]1CC[C@H]2[C@@H](C)C(=O)O[C@@H]3O[C@@]4(C)CC[C@@H]1[C@]32OO4 [Artemisinin] (10 µM) | 0

Retrieved one by one from the list above, two records:
Row | Structure (SMILES) | number of time points
15 | C[C@H]1CC[C@]2(NC1)O[C@H]1C[C@H]3[C@@H]4CC[C@H]5C[C@@H](O)CC[C@]5(C)[C@H]4CC[C@]3(C)[C@H]1[C@@H]2C [Tomatidine (hydrochloride)] (10 µM) | 0
9 | O=C1C=CC[C@@H]2[C@H]3CCCN4CCC[C@@H](CN12)[C@@H]34 [Sophocarpine (monohydrate)] (2.5 µM) | 0
